Data: publication PMC2807033
No constants are given. Whether binding was seen depends on the method and setting. For some of these results: Binding seen in cells or lysates may run through a third protein. Some results given as binding are weak or reduced against the parent protein; the word gives no strength.

Sequences of proteins named here, by UniProt entry; tags and fusion partners are left off. A change or cut given only in a name is not applied to a line headed by its entry. Residues count along the entry.
UniProt P09980: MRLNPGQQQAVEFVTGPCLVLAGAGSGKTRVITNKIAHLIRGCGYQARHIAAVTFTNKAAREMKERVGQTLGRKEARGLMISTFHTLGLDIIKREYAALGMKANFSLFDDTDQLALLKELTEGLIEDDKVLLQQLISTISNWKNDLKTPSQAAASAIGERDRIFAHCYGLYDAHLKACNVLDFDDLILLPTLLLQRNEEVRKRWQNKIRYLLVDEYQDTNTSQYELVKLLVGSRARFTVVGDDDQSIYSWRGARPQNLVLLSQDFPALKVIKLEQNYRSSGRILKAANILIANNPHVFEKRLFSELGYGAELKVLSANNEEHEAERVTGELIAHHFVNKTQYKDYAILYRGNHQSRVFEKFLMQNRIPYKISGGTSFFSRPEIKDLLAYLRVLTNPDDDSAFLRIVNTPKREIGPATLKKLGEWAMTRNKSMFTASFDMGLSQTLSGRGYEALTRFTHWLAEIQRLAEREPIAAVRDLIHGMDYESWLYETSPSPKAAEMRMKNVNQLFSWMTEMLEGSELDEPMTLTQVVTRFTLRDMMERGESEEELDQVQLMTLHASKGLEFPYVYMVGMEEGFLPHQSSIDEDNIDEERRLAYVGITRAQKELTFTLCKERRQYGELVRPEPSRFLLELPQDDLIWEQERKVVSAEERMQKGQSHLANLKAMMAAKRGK
C33^Rep peptide (synthetic peptide corresponding to the C-terminal 33 residues of Rep): residues 641-673 of P09980
UniProt P0ACB0: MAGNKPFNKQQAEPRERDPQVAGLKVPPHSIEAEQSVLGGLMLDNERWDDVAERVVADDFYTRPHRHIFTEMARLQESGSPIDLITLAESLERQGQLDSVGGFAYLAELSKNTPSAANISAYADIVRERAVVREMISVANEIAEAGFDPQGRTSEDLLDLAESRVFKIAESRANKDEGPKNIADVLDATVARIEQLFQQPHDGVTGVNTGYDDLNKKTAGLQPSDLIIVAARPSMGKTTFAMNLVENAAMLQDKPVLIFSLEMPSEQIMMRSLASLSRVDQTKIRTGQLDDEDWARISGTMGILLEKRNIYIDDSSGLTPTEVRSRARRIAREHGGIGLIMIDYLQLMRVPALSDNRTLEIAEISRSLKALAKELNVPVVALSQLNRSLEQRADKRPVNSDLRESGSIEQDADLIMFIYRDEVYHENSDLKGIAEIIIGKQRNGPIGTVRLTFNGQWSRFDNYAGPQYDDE

Assays:
[1] = target: T1, biotinylated UvrD (bait of the pull-down) (E. coli) (UniProt P03018); test: pull-down; biotinylated Rep, RepΔC33 and UvrD as bait, from E. coli whole-cell extracts; Coomassie-stained gel and western blot with DnaB antibodies; only the target purified
T1 sequence (chain, biotinylated (site not stated)): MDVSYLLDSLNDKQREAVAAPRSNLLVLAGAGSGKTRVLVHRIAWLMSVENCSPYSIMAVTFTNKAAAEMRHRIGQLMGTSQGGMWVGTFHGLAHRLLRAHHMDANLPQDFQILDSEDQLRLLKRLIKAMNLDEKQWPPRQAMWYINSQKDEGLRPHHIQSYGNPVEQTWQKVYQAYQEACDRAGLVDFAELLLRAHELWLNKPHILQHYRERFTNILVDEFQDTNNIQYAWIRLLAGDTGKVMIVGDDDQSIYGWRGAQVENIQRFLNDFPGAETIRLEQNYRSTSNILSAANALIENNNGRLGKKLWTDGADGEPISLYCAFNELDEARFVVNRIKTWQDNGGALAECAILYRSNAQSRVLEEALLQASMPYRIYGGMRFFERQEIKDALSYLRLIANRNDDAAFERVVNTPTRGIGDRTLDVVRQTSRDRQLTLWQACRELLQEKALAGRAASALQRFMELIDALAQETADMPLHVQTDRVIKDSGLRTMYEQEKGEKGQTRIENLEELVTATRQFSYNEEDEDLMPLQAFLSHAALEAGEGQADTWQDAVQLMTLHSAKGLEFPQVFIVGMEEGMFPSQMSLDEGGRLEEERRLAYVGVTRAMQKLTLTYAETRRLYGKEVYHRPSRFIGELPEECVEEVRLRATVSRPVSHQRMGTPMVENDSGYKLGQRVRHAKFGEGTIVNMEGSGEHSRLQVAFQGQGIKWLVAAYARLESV

[2] = target: biotinylated Rep (bait of the pull-down) (E. coli) (UniProt P09980); test: as above
[3] = target: C33^Rep peptide (synthetic peptide corresponding to the C-terminal 33 residues of Rep) (E. coli) (UniProt P09980); test: SPR; Figure S4; format not shown; both purified
[4] = target: C33^Rep peptide (synthetic peptide corresponding to the C-terminal 33 residues of Rep) (E. coli) (UniProt P09980); test: SPR; C33^Rep peptide (260 resonance units) surface-immobilised via an N-terminal biotin tag; DnaB 1 μM monomers and/or DnaC 4 μM monomers, or increasing concentrations of DnaC; both purified

Row | Substance | binding [1] | binding [2] | binding [3] | binding [4]
1 | DnaB in E. coli whole-cell extract (from UniProt P0ACB0 1-471) (enzyme) | no binding | binds |  | 
2 | E. coli replicative helicase DnaB, purified (from UniProt P0ACB0 1-471) (enzyme) |  |  | binds | binds
